# Results from PubChem BioAssay AID540276 (National Center for Advancing Translational Sciences (NCATS), 2011).
# About 5,400 (1.8%) of roughly 300,000 compounds were called active. The inconclusive results got no clear call from the source; some entries with a clear call stand among them for comparison. Calls come from the whole dose curve; tested in HEK293 cells. A potency beside an inconclusive call is a rough fit, not a confirmed value.
# Test: qHTS for inhibitors of binding or entry into cells for Marburg Virus
# Conditions: Marburg virus pseudotyped entry inhibition, cell reporter; activity change, negative = inhibition: at 37.8 µM (top of the series) unless noted
# % is set by controls: 0 for no effect and ±100 for the full control effect; potency is the fitted concentration of half-maximal effect.
SMILES,Potency,"activity change, negative = inhibition"
O=C(C1CCCCC1)N1C[C@H](n2cc(C3CC3)nn2)[C@H](O)C[C@@H]1c1ccc(Cl)cc1,"inconclusive: 0.396 µM [inhibitor, full curve, poor fit]",–
C=CCOc1nc(N(C)C)nc(N(C)C)n1,"inconclusive: 15.8 µM [activator, single point]",–
Cc1ccc(C(=O)Cc2ccccc2)cc1,"inconclusive: 5.62 µM [activator, single point]",–
CCn1c(CNC(=O)c2ccc(OC)c(OC)c2)nnc1SCC(=O)Nc1ccc(OC)cc1,"inconclusive: 5.62 µM [inhibitor, single point]",–
COc1ccc(CN(CC(=O)NC(C)C)C(=O)CCC(=O)Nc2nccs2)cc1,inactive,–
CCOP(=O)(OCC)c1nc(-c2cccc3ccccc23)oc1NCc1ccc(OC)cc1,"inconclusive: 20 µM [inhibitor, partial curve, poor fit]",–
CCOC(=O)c1cc(-c2ccc(C)o2)nn1CCC#N,inactive,–
CCCOc1ccc(CNC(=O)c2ccc3c(c2)N(Cc2ccccc2)CCS3)cc1,"inconclusive: 12.6 µM [inhibitor, partial curve, poor fit]",–
CC(=O)C1=C(C)N(Cc2ccccc2)C(=O)NC1CCc1ccccc1 (stereo not drawn),"inconclusive: 1.19 µM [activator, single point]",–
COc1ccc(/C=N/NC(=O)c2[nH]c(C)c(C(=O)N/N=C/c3ccc(OC)cc3)c2C)cc1,"inconclusive: 11.2 µM [inhibitor, partial curve, poor fit]",–
Cc1cc(C)cc(OCC(=O)N(Cc2ccc(N(C)C)cc2)C2CCS(=O)(=O)C2)c1 (stereo not drawn),"inconclusive: 15.8 µM [inhibitor, single point]",–
COc1cccc(C(=O)NC(=S)Nc2cccnc2)c1,inactive,–
Cc1ccc2nc(NC(=S)NC(=O)c3cccs3)sc2c1,inactive,–
O=C(O)Cc1sc(-c2cccnc2)nc1-c1ccc(Br)cc1,"inconclusive: 11.2 µM [activator, partial curve, poor fit]",–
O=C(Cn1c(=O)n(-c2cccc(Cl)c2)c(=O)n1CC(=O)N1CCCCC1)N1CCCCC1,"inconclusive: 14.1 µM [activator, single point]",–
OCCN(C=NC1=NN(c2cccc(C(F)(F)F)c2)CC1)CCO,inactive,–
COC(=O)c1nn(-c2ccc3c(c2)OCO3)cc1O,inactive,–
O=S(=O)(NCCC1=CCCCC1)c1cccc(S(=O)(=O)N2CCOCC2)c1,"inconclusive: 8.91 µM [inhibitor, partial curve]",–
COc1ccccc1-c1noc(-c2ccc(N3CCN(C)CC3)c([N+](=O)[O-])c2)n1,inactive,–
Cc1ccc(S(=O)(=O)N2CCN(C(=O)C3COc4ccccc4O3)CC2)cc1C (stereo not drawn),inactive,–
Nc1n[nH]c(N)c1N=Nc1ccc(Cl)cc1,"inconclusive: 2.06 µM [activator, partial curve, poor fit]",–
COc1ccccc1CNC(=O)CN1C(=O)NC(C)(c2ccc(C)cc2)C1=O (stereo not drawn),"inconclusive: 12.6 µM [activator, single point]",–
CC1CCC2(CC1)NC(=O)N(CC(=O)NC1CCCCC1C)C2=O (stereo not drawn),"inconclusive: 5.62 µM [activator, single point]",–

SMILES,Potency,"activity change, negative = inhibition"
CCOC(=O)c1c(C)c(-c2ccccc2)n(CC(=O)Nc2ccc(OCC)cc2)c1C,"inconclusive: 5.62 µM [inhibitor, partial curve, poor fit]",–
Cc1nnc2ccc(-c3cccc(NS(=O)(=O)c4cc(F)ccc4F)c3)nn12,"inconclusive: 3.16 µM [activator, single point]",–
O=C(Nc1ccc2nc(SCCOc3ccccc3)sc2c1)c1ccccc1F,inactive,–
CCNC(=S)N(CCc1c(C)[nH]c2ccc(Cl)cc12)Cc1ccco1,"inconclusive: 5.62 µM [inhibitor, single point]",–
COCCn1c(C)cc(C(=O)COC(=O)c2c(C)nn(Cc3ccccc3)c2C)c1C,"inconclusive: 35.5 µM [inhibitor, single point]",–
CCCCn1c(O)c(C(CC)=Nc2ccc(C(=O)O)cc2)c(=O)[nH]c1=O,inactive,–
COc1ccc(CC(=O)NC(=S)Nc2ccc(S(N)(=O)=O)cc2)cc1,"inconclusive: 0.891 µM [activator, full curve, poor fit]",–
COc1ccc(C(CNC(=O)c2cc(S(=O)(=O)Nc3cccc(C)c3)ccc2C)N2CCCC2)cc1 (stereo not drawn),"inconclusive: 11.2 µM [inhibitor, single point]",–
Cc1cnc(NC(=O)CCCc2nc3ccccc3s2)s1,"inconclusive: 35.5 µM [inhibitor, single point]",–
O=C(NC1CCCCCC1)c1cccc(COCC(F)(F)F)c1,"inconclusive: 8.2 µM [activator, partial curve, poor fit]",–
Cc1c(C#N)c(N)nc2c3c(sc12)NC(=O)CC3c1ccccc1 (stereo not drawn),"inconclusive: 1.26 µM [inhibitor, partial curve, poor fit]",–
Cc1ccc(S(=O)(=O)N(CC(=O)Nc2ccc(C)cc2C)C(=O)N2CCN(C)CC2)cc1,inactive,–
CC(C)Oc1ccc(C(=O)N2CCN(C(=O)c3ccco3)CC2)cc1,inactive,–
COc1ccc(C(=O)CCS(=O)(=O)c2ccc(C)cc2)cc1,"inconclusive: 8.91 µM [inhibitor, partial curve, poor fit]",–
O=C(NCCCN1CCN(c2cccc(Cl)c2)CC1)c1cccc(N2CCCC2=O)c1,"inconclusive: 15.8 µM [inhibitor, single point]",–
COc1ccc2oc(-c3ccc(C)c(NC(=O)c4ccc5c(c4)OCCO5)c3)nc2c1,inactive,–
CCOC(=O)C1CCCCN1Cc1ccc(OC)c(OC)c1 (stereo not drawn),inactive,–
CSc1c(CC(=O)Nc2ccccc2Cl)n(Cc2ccccc2)c2ccccc12,"inconclusive: 10 µM [inhibitor, partial curve, poor fit]",–
COc1ccc(Cn2cnc3c([N+](=O)[O-])c(C)c(C)cc32)cc1,"inconclusive: 23.1 µM [inhibitor, single point]",–
Cc1ccc(C(=O)N/N=C/c2ccc(-c3ccccc3[N+](=O)[O-])o2)cn1,inactive,–
COc1cc2[nH]c(C(=O)N3CCN(c4ccc(F)cc4)CC3)cc2c(OC)c1OC,"inconclusive: 11.2 µM [activator, partial curve, poor fit]",–
NC(=NCc1ccc2c(c1)OCO2)NC(=O)c1ccccc1,"inconclusive: 0.631 µM [inhibitor, full curve, poor fit]",–
COCCCn1c(=N)c(C(=O)NCc2cccnc2)cc2c(=O)n3cccc(C)c3nc21,inactive,–

# Record cards, from the list above:
# Cc1cnc(NC(=O)CCCc2nc3ccccc3s2)s1 in the list: Potency: inconclusive: 35.5 µM [inhibitor, single point]
# COc1ccccc1CNC(=O)CN1C(=O)NC(C)(c2ccc(C)cc2)C1=O (stereo not drawn) in the list: Potency: inconclusive: 12.6 µM [activator, single point]
# Cc1ccc2nc(NC(=S)NC(=O)c3cccs3)sc2c1 in the list: Potency: inactive
# COc1cc2[nH]c(C(=O)N3CCN(c4ccc(F)cc4)CC3)cc2c(OC)c1OC in the list: Potency: inconclusive: 11.2 µM [activator, partial curve, poor fit]

# Next results follow:

SMILES,Potency,"activity change, negative = inhibition"
Cc1ccn2c(Nc3ccccc3)c(-c3ccccn3)nc2c1,"inconclusive: 29.1 µM [inhibitor, single point]",–
c1ccc(CNc2ncnc3c2cnn3Cc2ccccc2)cc1,"inconclusive: 2.59 µM [inhibitor, full curve]",–
N#CC1=C(SCC(=O)NC23CC4CC(CC(C4)C2)C3)NC(=O)C(C#N)C12CCCCC2 (stereo not drawn),"inconclusive: 29.1 µM [inhibitor, single point]",–
O=C(CCn1cnc2ccccc21)N/N=C/C=C/c1ccccc1,"inconclusive: 35.5 µM [inhibitor, single point]",–
Cc1cc(C)cc(N(CC(=O)NC2CCCCC2)C(=O)CNC(=O)c2ccco2)c1,"inconclusive: 31.6 µM [activator, single point]",–
CCn1cc(-c2csc(N)n2)c(C)n1,inactive,–
Cc1cc(NC(=O)CSc2nnc3c(C)cc4c(C)ccc(C)c4n23)no1,"inconclusive: 5.17 µM [inhibitor, full curve]",–
Cc1cccc(C)c1NC(=O)Cn1nnc(C(=O)Nc2c(C)cccc2C)c1N,inactive,–
CCC1Sc2ccc(S(=O)(=O)CCC(=O)Nc3ccc(NC(C)=O)cc3)cc2NC1=O (stereo not drawn),"inconclusive: 35.5 µM [activator, partial curve, poor fit]",–
Cc1ccc(N=Cc2ccc(N(C)C)cc2)cc1C,inactive,–
O=C(c1ccccc1)c1cn(Cc2ccc(F)cc2)c2ccccc2c1=O,"inconclusive: 0.794 µM [inhibitor, full curve, poor fit]",–
Cc1ccc2nc(-c3ccc(NC(=O)CCN4C(=O)c5ccccc5C4=O)cc3)sc2c1,"inconclusive: 3.16 µM [inhibitor, partial curve, poor fit]",–
COC(C(=O)Nc1ccc(S(=O)(=O)N2CCCCC2)cc1)c1ccccc1 (stereo not drawn),inactive,–
COc1ccc(-c2cc(C(=O)Nc3ccc(C)cc3)no2)cc1,inactive,–
O=S(=O)(c1cccc2nsnc12)N1CCN(c2ncccn2)CC1,inactive,–
CCCN(CCC)[C@H]1CCc2c(F)ccc(O)c2C1,active: 11.2 µM,–
O=C1C=CC(=O)C(CNc2ccc(C(=O)OCc3ccccc3)cc2)=C1,"inconclusive: 12.6 µM [inhibitor, partial curve, poor fit]",–
Cc1cnc(N=Nc2ccccc2)[nH]1,"inconclusive: 11.2 µM [inhibitor, partial curve, poor fit]",–
Cc1nc2cc(Cl)c([N+](=O)[O-])cc2s1,–,inconclusive: 29.2% [activator] [at 46.1 µM]
COc1ccccc1C(=O)NCC1(c2ccccc2)CCCC1,"inconclusive: 10 µM [inhibitor, partial curve, poor fit]",–
CN(Cc1ccccc1)C(=O)c1cc2cc(F)ccc2[nH]1,"inconclusive: 2.82 µM [inhibitor, partial curve, poor fit]",–
Cc1cc(C)c(N(C(=O)CN2C(=O)c3ccccc3S2(=O)=O)C(C(=O)NCC2CCCO2)c2ccc(F)cc2)c(C)c1 (stereo not drawn),"inconclusive: 5.8 µM [inhibitor, partial curve, poor fit]",–
